Test results as given in article PMC9424285.
Results are given in words; binding and its absence hold for the method and conditions named. In cells and extracts the contact can be indirect. For some assays here: A result given as binding can be weak or reduced; the word gives no strength.

Legend:
[1] = target: T1, C-C motif chemokine receptor 4 (CCR4) (human (endogenous in KYSE410 and KYSE510)) (UniProt P51679); test: co-IP; immunoprecipitation-immunoblotting of KYSE410 and KYSE510 cells treated with CM from pol-TAMs, CM from pri-TAMs or CCL22 (50 ng/ml)
T1 sequence: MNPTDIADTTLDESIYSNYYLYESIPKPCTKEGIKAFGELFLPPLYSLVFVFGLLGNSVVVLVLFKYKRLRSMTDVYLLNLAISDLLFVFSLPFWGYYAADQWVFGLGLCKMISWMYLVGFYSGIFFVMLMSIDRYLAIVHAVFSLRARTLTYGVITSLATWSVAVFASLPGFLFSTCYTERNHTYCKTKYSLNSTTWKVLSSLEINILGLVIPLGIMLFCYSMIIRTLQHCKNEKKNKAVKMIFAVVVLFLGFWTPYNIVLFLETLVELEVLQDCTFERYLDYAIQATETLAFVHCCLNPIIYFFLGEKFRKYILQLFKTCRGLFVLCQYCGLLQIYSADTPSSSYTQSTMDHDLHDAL

[2] = target: T1, C-C motif chemokine receptor 4 (CCR4) (human (endogenous in KYSE410 and KYSE510)); test: condition: only with the anti-CCL22 Ab (50 μg/ml) added to the pol-TAM or pri-TAM CM; co-IP; immunoprecipitation-immunoblotting of KYSE410 and KYSE510 cells treated with CM from pol-TAMs or pri-TAMs together with the anti-CCL22 antibody (50 μg/ml)
[3] = target: T2, phospholipase C-γ1 (PLC-γ1) (human (endogenous in KYSE410 and KYSE510)) (UniProt P19174); test: co-IP; immunoprecipitation-immunoblotting of KYSE410 or KYSE510 cells treated with CCL22 (50 ng/ml); PLC-γ1 against its partners
T2 sequence: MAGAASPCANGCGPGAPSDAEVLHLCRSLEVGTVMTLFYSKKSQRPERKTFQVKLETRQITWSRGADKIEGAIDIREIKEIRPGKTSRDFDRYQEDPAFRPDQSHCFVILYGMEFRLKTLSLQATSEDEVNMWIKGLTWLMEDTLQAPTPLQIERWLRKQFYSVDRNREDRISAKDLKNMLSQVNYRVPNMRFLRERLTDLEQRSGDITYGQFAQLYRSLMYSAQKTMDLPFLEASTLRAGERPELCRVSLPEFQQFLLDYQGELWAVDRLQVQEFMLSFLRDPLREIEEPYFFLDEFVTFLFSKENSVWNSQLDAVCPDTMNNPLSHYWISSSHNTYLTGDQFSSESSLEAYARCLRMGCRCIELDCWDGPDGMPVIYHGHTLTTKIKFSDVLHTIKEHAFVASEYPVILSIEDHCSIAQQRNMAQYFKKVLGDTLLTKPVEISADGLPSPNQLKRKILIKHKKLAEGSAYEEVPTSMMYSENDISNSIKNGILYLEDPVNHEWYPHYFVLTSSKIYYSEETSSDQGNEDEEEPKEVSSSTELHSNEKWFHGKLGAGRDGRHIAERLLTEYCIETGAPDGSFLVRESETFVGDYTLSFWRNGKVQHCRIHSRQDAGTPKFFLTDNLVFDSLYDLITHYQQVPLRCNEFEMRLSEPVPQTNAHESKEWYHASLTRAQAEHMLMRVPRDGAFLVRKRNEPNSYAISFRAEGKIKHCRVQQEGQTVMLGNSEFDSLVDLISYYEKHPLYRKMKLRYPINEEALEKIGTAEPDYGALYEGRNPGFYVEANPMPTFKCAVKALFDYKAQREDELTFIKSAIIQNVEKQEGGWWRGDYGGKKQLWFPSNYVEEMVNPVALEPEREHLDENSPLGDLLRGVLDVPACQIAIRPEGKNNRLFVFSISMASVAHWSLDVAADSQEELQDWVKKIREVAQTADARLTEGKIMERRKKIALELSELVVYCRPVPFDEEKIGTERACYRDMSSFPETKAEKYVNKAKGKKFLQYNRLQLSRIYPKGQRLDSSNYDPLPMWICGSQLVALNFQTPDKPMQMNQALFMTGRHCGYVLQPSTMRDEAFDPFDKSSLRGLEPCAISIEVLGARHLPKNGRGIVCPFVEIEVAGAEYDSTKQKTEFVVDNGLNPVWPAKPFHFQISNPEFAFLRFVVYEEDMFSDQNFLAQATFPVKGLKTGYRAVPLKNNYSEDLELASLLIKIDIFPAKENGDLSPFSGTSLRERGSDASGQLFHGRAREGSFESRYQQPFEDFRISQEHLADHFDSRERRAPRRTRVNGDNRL

| binding [1] | binding [2] | binding [3] | Substance |
| --- | --- | --- | --- |
| no binding |  |  | FAK N-terminus (domain or fragment) |
| binds | no binding |  | FAK C-terminus (domain or fragment) |
| no binding |  | no binding | AKT (enzyme) |
